Data on one substance can be found in paper PMC9346003.

These are yes or no findings as the source states them, for the method shown. In cells and extracts the contact can be indirect. A result given as binding can be weak or reduced; the word gives no strength. Tags and fused reporters may be left off the sequences shown.

Assay [1] concerns the target T1, GST-TAK1 (full length 1-606 aa) (UniProt O43318).
T1 sequence: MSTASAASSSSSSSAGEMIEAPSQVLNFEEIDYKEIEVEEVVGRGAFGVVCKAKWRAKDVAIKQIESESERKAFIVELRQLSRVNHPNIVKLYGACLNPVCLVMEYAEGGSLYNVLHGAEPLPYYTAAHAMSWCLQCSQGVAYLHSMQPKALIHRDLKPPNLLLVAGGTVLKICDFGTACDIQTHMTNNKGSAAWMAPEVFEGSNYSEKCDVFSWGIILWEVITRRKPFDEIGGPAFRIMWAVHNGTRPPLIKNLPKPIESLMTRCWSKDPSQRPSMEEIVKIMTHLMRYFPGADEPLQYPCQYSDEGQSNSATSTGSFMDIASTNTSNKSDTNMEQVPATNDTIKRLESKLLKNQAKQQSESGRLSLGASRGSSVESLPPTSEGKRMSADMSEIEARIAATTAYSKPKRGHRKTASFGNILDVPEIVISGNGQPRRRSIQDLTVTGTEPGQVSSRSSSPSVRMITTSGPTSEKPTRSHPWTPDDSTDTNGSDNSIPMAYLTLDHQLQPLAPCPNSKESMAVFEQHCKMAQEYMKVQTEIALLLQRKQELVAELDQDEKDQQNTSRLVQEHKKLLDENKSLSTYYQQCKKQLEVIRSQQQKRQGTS
Nature of the assay: pull-down; GST-TAK1 or GST-vector and GPX4 incubated in lysis buffer overnight at 4 °C; GST-agarose added for 4 h at 4 °C, washed four times; blot with anti-GPX4; GPX4 bought as purified protein, whether the GST proteins were purified beforehand is not told.

The target of assay [2] is T2, GST-TAK1 (N-terminal 1-305 aa) (UniProt O43318).
T2 sequence: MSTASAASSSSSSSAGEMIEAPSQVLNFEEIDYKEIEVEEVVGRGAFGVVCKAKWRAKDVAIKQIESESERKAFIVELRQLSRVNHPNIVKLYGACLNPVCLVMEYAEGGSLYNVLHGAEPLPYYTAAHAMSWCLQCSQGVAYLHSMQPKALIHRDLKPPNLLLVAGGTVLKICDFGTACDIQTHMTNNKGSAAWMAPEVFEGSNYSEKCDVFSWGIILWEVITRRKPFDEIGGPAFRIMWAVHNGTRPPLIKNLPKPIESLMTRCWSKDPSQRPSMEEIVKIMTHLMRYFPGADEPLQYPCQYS
The assay is described as above.

Turning to “recombinant human GPX4 protein (Abcam ab82660)”, the binding result in assay [1] and in assay [2] was “binds” each time.
